Laboratory results published in the supplement of paper PMC3334620.
Whole data set: some 33,000 sequences, median “E-score (-0.5 to 0.5)” near -0.0059, cut for the highest 2% near 0.26. Some of the results follow.

Target: T1, Cin5 (UniProt P40917)
T1 sequence: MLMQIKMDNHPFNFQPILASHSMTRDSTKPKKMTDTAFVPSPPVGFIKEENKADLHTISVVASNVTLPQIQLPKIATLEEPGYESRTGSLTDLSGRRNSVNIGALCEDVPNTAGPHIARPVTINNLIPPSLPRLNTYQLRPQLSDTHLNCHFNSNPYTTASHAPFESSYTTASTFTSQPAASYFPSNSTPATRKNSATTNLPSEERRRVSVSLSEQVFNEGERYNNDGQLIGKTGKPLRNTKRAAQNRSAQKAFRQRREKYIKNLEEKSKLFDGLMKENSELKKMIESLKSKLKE
Assay: PBM E-score (8-mer binding enrichment) (E-score (-0.5 to 0.5)); higher = stronger / more preferred TF binding
Details: protein concentration: 100 nM; construct: GST-full length
In short: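 GST-tagged yeast TFs (full-length or DNA-binding domain) were made by PURExpress in vitro transcription/translation and applied at about 100-200 nM to universal all-10-mer Agilent arrays. The arrays were made double-stranded by primer extension, on fresh or once-stripped slides. Bound protein was detected with fluorescent anti-GST, and scans were normalised with masliner. Each ungapped eight-base word, pooled with its reverse complement, received an E-score (modified Wilcoxon-Mann-Whitney statistic) from the Universal PBM Analysis Suite.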

Row | Sequence | PBM E-score
1 | ATAGACAG | 0.0499
2 | CATTCCGC | 0.076
3 | GGATATAC | 0.137
4 | AAATCACC | 0.249
5 | GTCAAAGA | -0.0368
6 | GCACAGGA | -0.0338
7 | AATCCGCT | 0.116
8 | AACTTGAA | 0.161
9 | CTTTCTGA | -0.0676
10 | CGGCGTGA | -0.0351
11 | AGGGTGCA | -0.148
12 | CCTACCAA | 0.0364
13 | CCCTGCGA | -0.0749
14 | CGTCGCAA | 0.183
15 | CGTCGGCA | -0.102
16 | CCGGTGCA | -0.187
17 | AGCTGTAA | -0.0224
18 | CCTTTGAG | -0.295
19 | CTCATATC | 0.0427
20 | CCGGCAGG | -0.11
21 | TATGGTCA | 0.063
22 | ATGATGCC | -0.052
23 | ATTCACGC | 0.0247
24 | GACTACGA | -0.0545
25 | GAAGCCCA | -0.128

Row | Sequence | PBM E-score
26 | GATGTACC | 0.113
27 | AACCGGGC | -0.234
28 | AGTTATGG | 0.0606
29 | CCCTTCAG | -0.137
30 | CACCGATA | 0.0787
31 | ATCTCAGA | -0.0736
32 | TATAAGGA | 0.135
33 | TAAGTAGA | 0.05
34 | CACCTAAG | 0.139
35 | GATAGACC | -0.0396
36 | ATAAAAAC | 0.166
37 | CACCAGGC | -0.173
38 | CCTCCTAA | -0.207
39 | CAGTTTGC | 0.0891
40 | CATAAAGG | -0.129
41 | CAGTCTCC | -0.0362
42 | ATTGAGCC | 0.111
43 | AAAAACCC | 0.00593
44 | CTAGTGTA | 0.111
45 | GCAGCTGC | -0.0527
46 | TCGGCGCA | 0.0671
47 | GATGCTCC | -0.2
48 | CCTACGAG | -0.168
49 | CCTAGAGA | -0.119
50 | AGATGCTG | -0.0757

Row | Sequence | PBM E-score
51 | GCGTGCCC | -0.158
52 | GAAAGGTA | 0.121
53 | CTATCAAA | 0.199
54 | CCCCGAGC | -0.0314
55 | CTCCGGGC | -0.164
56 | TCAAGCCA | -0.0873
57 | CACCTGGA | -0.0421
58 | TCTTGTAA | 0.078
59 | CTCGGTTA | -0.0853
60 | ACGGAAGG | -0.0907
61 | AACATAAC | 0.223
62 | CCGATTAG | 0.216
63 | ATCCTGGG | -0.125
64 | CCATTTAG | -0.0487
65 | GGGCGCCA | 0.0597
66 | CCACCCTA | 0.0333
67 | CCATTTCG | -0.046
68 | GACTCGGA | -0.142
69 | CTTACTTC | 0.218
70 | CGAAAGTA | 0.0557
71 | GGTCTGAC | -0.169
72 | CTGTCCAA | -0.0324
73 | CCTAGTGA | -0.0994
74 | ATTCAGAC | 0.0804
75 | CGTTTTTA | 0.0643

Row | Sequence | PBM E-score
76 | GGGCATAC | -0.132
77 | CTAAAGGC | -0.125
78 | CTCTGTCA | -0.0678
79 | ACTCGACA | 0.0877
80 | CTTTATAA | -0.0352
81 | ACTGGTAT | -0.0253
82 | ACCGGGTC | -0.121
83 | ACATTTAC | 0.0149
84 | CGGCGTAG | -0.0989
85 | ACAATTGC | 0.0338
86 | CTACGATC | -0.0823
87 | ACGCTCAT | 0.0547
88 | CGCTACGC | -0.323
89 | AAAGGGAC | -0.22
90 | ATTTCGGG | 0.0696
91 | GGTCTGCA | -0.151
92 | CGTTCCAA | -0.0441
93 | TAAGAAAA | 0.0216
94 | GGTCCCCA | -0.234
95 | GTTGAACA | -0.0915
96 | AGCCCTCA | -0.18
97 | GCCCGTAC | -0.239
98 | CCACAAAC | 0.0505
99 | AAACTAGG | 0.0204
100 | CTCAAAAA | 0.0313

Row | Sequence | PBM E-score
101 | CAGATGCG | -0.177
102 | TTCGGCAA | -0.00562
103 | GTTTCATA | 0.116
104 | AACTTCGG | 0.126
105 | CGCAACGA | 0.0182
106 | ATTTCAGA | -0.0549
107 | CAGATTAA | 0.169
108 | GTCTGAAA | -0.0562
109 | AACCGTAA | 0.106
110 | ACCCCAGA | 0.101
111 | AGCTGCCG | -0.0554
112 | ACCCGCCA | 0.0492
113 | GTCTACAA | -0.236
114 | AGACCCAG | -0.097
115 | CTCGGACC | -0.0862
116 | GAATAATC | 0.221
117 | ACAAGCAA | 0.122
118 | AAGGACGG | -0.153
119 | CCGTTCCG | 0.0649
120 | CGATGTAC | 0.109
121 | CTAAGCGC | 0.098
122 | CAGCCTGC | -0.174
123 | CATGATAG | 0.0148
124 | CCTTGCTC | -0.0589
125 | CAAAGCGA | 0.028

Row | Sequence | PBM E-score
126 | CGAACTTC | -0.0301
127 | ATGCACAC | 0.0898
128 | AATTCGTG | -0.0217
129 | AAGGGTGT | -0.0789
130 | CCCACGGA | -0.0572
131 | AGATTAAT | 0.218
132 | ATGGTACG | 0.0949
133 | GGTCTCAC | -0.167
134 | AATACGGA | 0.188
135 | GGCGCCTA | -0.0895
136 | CTTTGTTC | 0.0999
137 | AACGAGAG | 0.0786
138 | TAGAGCTA | -0.0785
139 | CGCCGGAA | 0.0331
140 | AACCTTGA | 0.077
141 | ACCGGCCT | -0.101
142 | CTGTCCCC | -0.121
143 | GACACCAA | 0.0301
144 | CGCCCTAA | -0.18
145 | GGCGTCCC | -0.138
146 | ATAATCTA | 0.242
147 | ATAAGACC | 0.0621
148 | CAGCCAGC | -0.176
149 | AGTGAACC | 0.0709
150 | CACGAAAG | 0.047

Row | Sequence | PBM E-score
151 | ACCGCGCC | -0.0171
152 | GTCTTAAA | -0.185
153 | CATACGTC | 0.0152
154 | GACTGTCA | -0.16
155 | CAAGGGAA | -0.129
156 | CTTTAATC | 0.043
157 | CAGAAGTC | -0.0554
158 | TATAGCAA | 0.134
159 | AAATCTAT | 0.107
160 | GCCCATAC | 0.0443
161 | TCCCCCAA | -0.332
162 | TGGCGGAA | -0.0447
163 | GGATTTAA | 0.0513
164 | ACCGGAAA | -0.0602
165 | CTGTGATC | -0.0103
166 | CAGAGCAA | -0.0278
167 | CCGGAACC | 0.0665
168 | CATGACTC | -0.0741
169 | CTGGTGCA | -0.173
170 | GATTATAC | 0.182
171 | AAGCCAGG | -0.126
172 | ATCCCCGC | 0.0335

Some values from the list:
PBM E-score, TGGCGGAA is entered as -0.0447
PBM E-score, GGATTTAA is entered as 0.0513
PBM E-score, CAGAAGTC is entered as -0.0554
PBM E-score, AAATCTAT is entered as 0.107
PBM E-score, CAGAGCAA is entered as -0.0278
PBM E-score, CTGGTGCA is entered as -0.173
PBM E-score, GACTGTCA is entered as -0.16
